Record: PubChem BioAssay AID1224830 (NIAID, 2016)
Test: 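Regulators of TLR4 signalling towards TNF-alpha in macrophage-like cells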 (primary screen). Cell system: human THP-1 monocytic leukaemia cells, TNF dual-luciferase reporter clone, PMA-differentiated to macrophage-like cells. Knock-down reagent: siRNA pool against human genes, 50 nM. Timing: LPS for 4 h, given about 3 days after siRNA transfection. Treatment: bacterial LPS (TLR4 ligand), 10 ng/ml. Measured: 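TNF firefly reporter luminescence divided by renilla, normalised to the plate median, then turned into a robust z-score for each replicate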. Reading the numbers: TNF reporter robust z-score: higher = stronger TNF reporter response to LPS. Call rule: 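Each well counts as active if its z-score is over 2.8 or under -1.5; controls are left without a call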.
The deposit covers about 18,000 reagents; shown is an unselected part. About 2,900 of them (16%) were called active. 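Calls are made per well; low scores hint the gene aids the LPS response, high scores that it dampens it.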 Repeated entries: four replicate wells of each siRNA pool.

Against NOA1 the deposit lists TNF reporter robust z-score -1.04; inactive.
Knock-down of NOA1 came out at: TNF reporter robust z-score -1.29; inactive.
NOA1 gave TNF reporter robust z-score -0.88; inactive.
With knock-down of NOA1, the screen gave TNF reporter robust z-score -0.68; inactive.
Knock-down of DNASE2 gave: TNF reporter robust z-score -0.2; inactive.
Depletion of DNASE2 resulted in: TNF reporter robust z-score 0.52; inactive.
Knock-down of DNASE2 gave: TNF reporter robust z-score 0.99; inactive.
After knock-down of DNASE2, the record shows TNF reporter robust z-score 1.54; inactive.
After knock-down of NAT14, the record shows TNF reporter robust z-score 3.92; active.
Against NAT14 the deposit lists TNF reporter robust z-score 0.93; inactive.
After knock-down of NAT14 the results were TNF reporter robust z-score 0.47; inactive.
Silencing of NAT14 resulted in: TNF reporter robust z-score -0.06; inactive.
TGM3 gave TNF reporter robust z-score 2.15; inactive.
For TGM3, the entry reads TNF reporter robust z-score 3.06; active.
Silencing of TGM3 resulted in: TNF reporter robust z-score 2.48; inactive.
Against TGM3, the entry reads TNF reporter robust z-score 2.78; inactive.
With knock-down of GOLGA6L9, the record shows inactive.
GOLGA6L9 gave TNF reporter robust z-score -0.13; inactive.
With knock-down of GOLGA6L9 the results were TNF reporter robust z-score -0.33; inactive.
With knock-down of GOLGA6L9, the screen gave TNF reporter robust z-score -0.41; inactive.
Depletion of GOLGA6L9 came out at: TNF reporter robust z-score -0.16; inactive.
After knock-down of CEACAM16, the record shows TNF reporter robust z-score 3.58; active.
For CEACAM16, the entry reads TNF reporter robust z-score 3.26; active.
Against CEACAM16, the entry reads TNF reporter robust z-score 0.09; inactive.
Against CEACAM16, the values are TNF reporter robust z-score 0.48; inactive.
Depletion of TAS1R1 resulted in: TNF reporter robust z-score -0.81; inactive.
Knock-down of TAS1R1 gave: TNF reporter robust z-score 0.67; inactive.
After knock-down of TAS1R1, the screen gave TNF reporter robust z-score -0.41; inactive.
After knock-down of TAS1R1, the screen gave TNF reporter robust z-score 0.68; inactive.
Depletion of SDE2 came out at: TNF reporter robust z-score -1.67; active.
SDE2 scored TNF reporter robust z-score -1.34; inactive.
For SDE2 the deposit lists TNF reporter robust z-score -1.8; active.
SDE2 showed TNF reporter robust z-score -1.49; inactive.

A run of entries from the list above, as a working copy:
SDE2: TNF reporter robust z-score = -1.8; activity call = active
SDE2: TNF reporter robust z-score = -1.49; activity call = inactive
